Experimental data published in the supplement of paper PMC10373366.
Structures can show the parent of a compound that is named as a salt. Some of the results follow. Repeats are few or missing, and single values can be far off.

Columns and labels:
[1] = test system: A2780; assay: cell growth inhibition ratio vs untreated control (CCK8); higher = stronger inhibition of cell viability; details: 10 µM; 48 h
Method: (§1)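 Natural product library (Topscience) screened at 10 µM final concentration for 48 h on ovarian cancer A2780 cells and patient-derived ovarian cancer cells (PDC) in 96-well plates; viability read by CCK8 and reported as inhibition ratio (%) relative to untreated control. Single-dose primary screen.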

[2] = test system: patient-derived ovarian cancer cells (PDC); assay: as above; details: 10 µM; 48 h
Method: as §1

C=CCc1ccc(O)c(-c2cc(CC=C)ccc2O)c1 [Magnolol]
cell growth inhibition ratio [1]: -24.3%
cell growth inhibition ratio [2]: -1.21%

O=c1cc(-c2ccc(O)cc2)oc2cc(O)c(O)c(O)c12 [Scutellarein]
cell growth inhibition ratio [1]: 7.41%
cell growth inhibition ratio [2]: -10.5%

COc1cccc2oc(-c3ccccc3)cc(=O)c12 [5-methoxyflavone]
cell growth inhibition ratio [1]: 10.2%
cell growth inhibition ratio [2]: 8.81%

O=c1cc(-c2ccc(O)cc2)oc2cc(O)cc(O)c12 [Apigenin]
cell growth inhibition ratio [1]: 20.9%
cell growth inhibition ratio [2]: -8.32%

COc1ccc(-c2cc(=O)c3c(O)cc(O[C@@H]4O[C@H](CO[C@@H]5O[C@@H](C)[C@H](O)[C@@H](O)[C@H]5O)[C@@H](O)[C@H](O)[C@H]4O)cc3o2)cc1O [Diosmin]
cell growth inhibition ratio [1]: 10.4%
cell growth inhibition ratio [2]: 0.451%

COc1ccc2cc3[n+](cc2c1OC)CCc1cc2c(cc1-3)OCO2 [Berberine hydrochloride]
cell growth inhibition ratio [1]: 34.2%
cell growth inhibition ratio [2]: -4.17%

CN[C@@H]1[C@H](O[C@H]2[C@H](O[C@H]3[C@H](O)[C@@H](O)[C@H](N=C(N)N)[C@@H](O)[C@@H]3N=C(N)N)O[C@@H](C)[C@]2(O)C=O)O[C@@H](CO)[C@H](O)[C@H]1O [Streptomycin sulfate]
cell growth inhibition ratio [1]: 14.6%
cell growth inhibition ratio [2]: -6.53%

CC(C)=CCC[C@](C)(O[C@@H]1O[C@H](CO)[C@@H](O)[C@H](O)[C@H]1O)[C@H]1CC[C@]2(C)[C@@H]1[C@H](O)C[C@@H]1[C@@]3(C)CC[C@H](O)C(C)(C)[C@@H]3CC[C@]12C [(20S)-20-(β-D-Glucopyranosyloxy)dammara-24-ene-3β,12β-diol]
cell growth inhibition ratio [1]: 1.97%
cell growth inhibition ratio [2]: 6.4%

Cc1cc2nc3c(=O)[nH]c(=O)nc-3n(C[C@H](O)[C@H](O)[C@H](O)COP(=O)(O)O)c2cc1C [Flavin mononucleotide]
cell growth inhibition ratio [1]: 1.53%
cell growth inhibition ratio [2]: -9.28%

CC[C@H](C)C(=O)O[C@H]1CCC=C2C=C[C@H](C)[C@H](CC[C@@H]3C[C@@H](O)CC(=O)O3)[C@H]21 [Mevastatin]
cell growth inhibition ratio [1]: 65.8%
cell growth inhibition ratio [2]: -36.1%

COc1ccc2c3c1O[C@H]1C[C@@H](O)C=C[C@@]31CCN(C)C2 [Galanthamine HBr]
cell growth inhibition ratio [1]: 19.9%
cell growth inhibition ratio [2]: -4.81%

COc1ccc(-c2cc(=O)c3c(OC)c(OC)c(OC)c(OC)c3o2)cc1 [Tangeretin]
cell growth inhibition ratio [1]: 32.5%
cell growth inhibition ratio [2]: 18.6%

C=C1CC[C@@H]2[C@](C)(CO)[C@H](O)CC[C@@]2(C)[C@H]1C/C=C1\C=COC1=O [Dehydroandrographolide]
cell growth inhibition ratio [1]: 18.8%
cell growth inhibition ratio [2]: -2.26%

O=C(O)c1cc(O)ccc1O [Gentisic acid]
cell growth inhibition ratio [1]: 9.34%
cell growth inhibition ratio [2]: 9.7%

O=C1c2ccccc2C(=O)c2c1ccc(O)c2O [Alizarin]
cell growth inhibition ratio [1]: 4.07%
cell growth inhibition ratio [2]: 10.7%

CC(C)CCC[C@@H](C)[C@H]1CC[C@H]2[C@@H]3CC=C4C[C@@H](O)CC[C@]4(C)[C@H]3CC[C@]12C [Cholesterol]
cell growth inhibition ratio [1]: 11.3%
cell growth inhibition ratio [2]: 5.92%

O=C(O)CCCC[C@@H]1CCSS1 [Thioctic acid]
cell growth inhibition ratio [1]: 10.9%
cell growth inhibition ratio [2]: 0.778%

COc1cc2c(=O)c3c(O)c([C@@H]4O[C@H](CO[C@@H]5OC[C@](O)(CO)[C@H]5O)[C@@H](O)[C@H](O)[C@H]4O)c(O)cc3oc2cc1O [polygalaxanthone III]
cell growth inhibition ratio [1]: 13%
cell growth inhibition ratio [2]: -2.75%

CC[C@H]1OC(=O)[C@H](C)[C@@H](O[C@H]2C[C@@](C)(OC)[C@@H](O)[C@H](C)O2)[C@H](C)[C@@H](O[C@@H]2O[C@H](C)C[C@H](N(C)C)[C@H]2O)[C@](C)(O)C[C@@H](C)C(=O)[C@H](C)[C@@H](O)[C@]1(C)O [Erythromycin]
cell growth inhibition ratio [1]: 3.15%
cell growth inhibition ratio [2]: 4.22%

CC[C@H](C)CCCCC(=O)N[C@@H](CCNCS(=O)(=O)O)C(=O)N[C@H](C(=O)N[C@@H](CCNCS(=O)(=O)O)C(=O)N[C@H]1CCNC(=O)[C@H]([C@@H](C)O)NC(=O)[C@H](CCNCS(=O)(=O)O)NC(=O)[C@H](CCN)NC(=O)[C@H](CC(C)C)NC(=O)[C@@H](CC(C)C)NC(=O)[C@H](CCNCS(=O)(=O)O)NC1=O)[C@@H](C)O [Colistimethate Sodium]
cell growth inhibition ratio [1]: 0.217%
cell growth inhibition ratio [2]: 11%
